Test results: PMC8231892
Results are given in words; binding and its absence hold for the method and conditions named. In cells and extracts the contact can be indirect. Some results given as binding are weak or reduced against the parent protein; the word gives no strength.

Chains of the proteins cited; added tags and fusions are not shown. Residues count along the entry.
UniProt P48995: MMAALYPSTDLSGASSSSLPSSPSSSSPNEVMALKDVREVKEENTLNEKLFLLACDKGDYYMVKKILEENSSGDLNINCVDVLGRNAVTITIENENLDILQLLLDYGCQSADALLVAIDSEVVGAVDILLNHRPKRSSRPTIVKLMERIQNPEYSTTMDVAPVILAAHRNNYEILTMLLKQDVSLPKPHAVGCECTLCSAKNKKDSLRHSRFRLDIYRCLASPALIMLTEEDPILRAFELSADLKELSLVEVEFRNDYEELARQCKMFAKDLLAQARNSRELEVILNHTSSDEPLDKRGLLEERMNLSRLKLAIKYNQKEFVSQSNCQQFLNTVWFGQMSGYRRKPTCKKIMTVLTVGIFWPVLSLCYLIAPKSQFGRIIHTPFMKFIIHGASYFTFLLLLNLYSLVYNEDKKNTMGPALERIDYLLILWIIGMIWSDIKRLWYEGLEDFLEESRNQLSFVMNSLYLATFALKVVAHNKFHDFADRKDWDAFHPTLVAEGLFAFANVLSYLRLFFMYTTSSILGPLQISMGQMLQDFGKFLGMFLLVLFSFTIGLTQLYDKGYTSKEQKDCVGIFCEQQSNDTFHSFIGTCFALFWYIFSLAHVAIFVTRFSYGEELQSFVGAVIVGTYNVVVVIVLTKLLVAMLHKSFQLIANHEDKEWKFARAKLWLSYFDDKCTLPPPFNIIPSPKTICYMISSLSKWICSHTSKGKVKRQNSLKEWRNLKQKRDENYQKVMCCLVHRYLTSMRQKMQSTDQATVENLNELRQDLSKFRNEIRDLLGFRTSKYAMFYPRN
UniProt Q13586, residues 23-685: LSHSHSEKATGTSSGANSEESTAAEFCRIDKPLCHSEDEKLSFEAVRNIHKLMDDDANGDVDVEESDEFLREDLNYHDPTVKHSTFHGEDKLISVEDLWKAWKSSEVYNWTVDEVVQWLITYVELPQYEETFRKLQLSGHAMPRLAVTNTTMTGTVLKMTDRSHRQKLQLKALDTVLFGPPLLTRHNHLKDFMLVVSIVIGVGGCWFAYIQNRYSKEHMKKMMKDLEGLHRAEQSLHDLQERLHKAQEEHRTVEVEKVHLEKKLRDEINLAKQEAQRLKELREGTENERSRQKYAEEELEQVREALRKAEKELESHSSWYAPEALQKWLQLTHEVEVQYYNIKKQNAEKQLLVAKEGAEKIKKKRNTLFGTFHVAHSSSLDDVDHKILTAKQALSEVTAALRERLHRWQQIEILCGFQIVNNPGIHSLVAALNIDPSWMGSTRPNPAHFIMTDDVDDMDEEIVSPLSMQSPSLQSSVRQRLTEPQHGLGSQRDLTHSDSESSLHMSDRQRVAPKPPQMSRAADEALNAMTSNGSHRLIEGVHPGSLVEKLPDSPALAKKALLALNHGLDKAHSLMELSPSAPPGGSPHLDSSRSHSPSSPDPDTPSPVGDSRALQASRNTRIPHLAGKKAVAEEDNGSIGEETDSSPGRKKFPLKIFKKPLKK

Molecular target: TRPC1 (human (endogenous in U266 and MM.1s)) (UniProt P48995)
Test: co-IP; endogenous proteins; U266 and MM.1s cells treated with MTI-101 (20 µM and 25 µM) for 10 min in Live Cell Imaging Solution, lysed with 1% Triton X-100 in PBS; 1 mg protein incubated with TRPC1 antibody (or host species IgG) overnight at 4 °C, protein A/G plus agarose, washed 3 times in lysis buffer, Western blot

binding: binds
Substance: STIM1 (from UniProt Q13586 23-685)
